Some results were stated once for a whole list of compounds, not compound by compound.
tested on: Alternaria solani; experiment: Alternaria solani / tomato / leaf disc (early blight); assay type: in vivo; details: 200 ppm; tomato leaf disks cv. Baby, inoculated 2 days after application; assessed 5-7 days after application

Row | SMILES | control of Alternaria solani (percent disease control compared to untreated)
1 | CCn1c(-n2ncnc2N)nc2cncc(Br)c21 [Compound 15, 2-(7-bromo-1-ethylimidazo[4,5-c]pyridin-2-yl)-1,2,4-triazol-3-amine] | at least 80%
2 | CCn1c(-n2ncnc2N)nc2cncc(-c3ccoc3)c21 [Compound 55, 2-[1-ethyl-7-(furan-3-yl)imidazo[4,5-c]pyridin-2-yl]-1,2,4-triazol-3-amine] | at least 80%
3 | CCn1c(-n2ncnc2N)nc2cncc(-c3ccc(OC)nc3OC)c21 [Compound 56, 2-[7-(2,6-dimethoxypyridin-3-yl)-1-ethylimidazo[4,5-c]pyridin-2-yl]-1,2,4-triazol-3-amine] | at least 80%
4 | CC=Cc1cncc2nc(-n3ncnc3N)n(CC)c12 [Compound 67, 2-(1-ethyl-7-prop-1-enylimidazo[4,5-c]pyridin-2-yl)-1,2,4-triazol-3-amine] | at least 80%
5 | CCn1c(-n2ncnc2N)nc2cncc(-c3ccccc3C)c21 [Compound 72, 2-[1-ethyl-7-(2-methylphenyl)imidazo[4,5-c]pyridin-2-yl]-1,2,4-triazol-3-amine] | at least 80%
6 | CCCCCCO/N=C(/C)c1cncc2nc(-n3ncnc3N)n(CC)c12 [Compound 147] | at least 80%
7 | CCCn1c(-n2ncnc2N)nc2cncc(-c3ccccc3Cl)c21 [Compound 172, 2-[7-(2-chlorophenyl)-1-propyl-imidazo[4,5-c]pyridin-2-yl]-1,2,4-triazol-3-amine] | at least 80%

— patent publication US9512120B2, “Microbicidally active imidazopyridine derivatives” (Syngenta Participations AG, priority 2013, dated 2016)
